Reference: US9409865B2, “Modulators of methyl modifying enzymes, compositions and uses thereof” (Constellation Pharmaceuticals, Inc., priority 2011, dated 2016)
The structures given here were assigned with low confidence; some may be wrong.

Sequences of proteins named here, by UniProt entry; tags and fusion partners are left off. A change or cut given only in a name is not applied to a line headed by its entry.
UniProt Q15910, whole entry: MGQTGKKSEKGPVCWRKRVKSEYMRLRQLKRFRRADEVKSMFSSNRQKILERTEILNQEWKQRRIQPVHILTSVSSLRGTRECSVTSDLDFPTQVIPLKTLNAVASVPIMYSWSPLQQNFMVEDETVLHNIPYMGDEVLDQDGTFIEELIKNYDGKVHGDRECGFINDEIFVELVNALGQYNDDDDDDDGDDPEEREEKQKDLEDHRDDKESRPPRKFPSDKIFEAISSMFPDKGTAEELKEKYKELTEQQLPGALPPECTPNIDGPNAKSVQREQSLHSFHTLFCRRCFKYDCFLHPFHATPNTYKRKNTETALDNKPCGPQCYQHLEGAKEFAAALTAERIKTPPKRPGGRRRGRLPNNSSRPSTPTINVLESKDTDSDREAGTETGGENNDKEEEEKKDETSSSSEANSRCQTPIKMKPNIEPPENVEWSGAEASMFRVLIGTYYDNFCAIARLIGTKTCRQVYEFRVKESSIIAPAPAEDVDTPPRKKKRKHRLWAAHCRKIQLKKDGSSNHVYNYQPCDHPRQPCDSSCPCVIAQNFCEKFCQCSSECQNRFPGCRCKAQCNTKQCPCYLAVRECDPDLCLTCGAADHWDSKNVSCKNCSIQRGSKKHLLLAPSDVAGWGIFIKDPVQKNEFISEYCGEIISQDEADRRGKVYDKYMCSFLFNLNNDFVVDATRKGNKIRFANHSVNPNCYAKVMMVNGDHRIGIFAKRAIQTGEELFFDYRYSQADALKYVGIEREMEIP
UniProt Q15910, whole entry Y641N: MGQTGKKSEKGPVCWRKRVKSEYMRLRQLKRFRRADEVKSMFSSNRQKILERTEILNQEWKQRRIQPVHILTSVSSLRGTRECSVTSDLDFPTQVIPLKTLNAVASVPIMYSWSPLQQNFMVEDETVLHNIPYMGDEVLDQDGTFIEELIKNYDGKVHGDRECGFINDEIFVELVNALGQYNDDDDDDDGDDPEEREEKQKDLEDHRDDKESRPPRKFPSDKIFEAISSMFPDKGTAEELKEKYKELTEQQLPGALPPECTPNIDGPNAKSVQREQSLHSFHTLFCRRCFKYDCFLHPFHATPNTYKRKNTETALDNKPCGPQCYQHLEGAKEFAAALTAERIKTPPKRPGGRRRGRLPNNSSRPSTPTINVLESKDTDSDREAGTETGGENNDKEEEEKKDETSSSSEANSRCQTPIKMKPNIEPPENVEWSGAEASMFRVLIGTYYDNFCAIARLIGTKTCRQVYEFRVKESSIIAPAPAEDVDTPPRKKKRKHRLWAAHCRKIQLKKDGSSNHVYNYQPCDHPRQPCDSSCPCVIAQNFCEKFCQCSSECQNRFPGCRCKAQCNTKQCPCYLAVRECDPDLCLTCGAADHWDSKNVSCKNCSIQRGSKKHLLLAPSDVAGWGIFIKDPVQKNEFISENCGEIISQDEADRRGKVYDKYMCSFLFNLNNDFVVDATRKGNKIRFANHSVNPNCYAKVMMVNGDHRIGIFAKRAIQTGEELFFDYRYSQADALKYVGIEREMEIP
UniProt Q15022, whole entry partner: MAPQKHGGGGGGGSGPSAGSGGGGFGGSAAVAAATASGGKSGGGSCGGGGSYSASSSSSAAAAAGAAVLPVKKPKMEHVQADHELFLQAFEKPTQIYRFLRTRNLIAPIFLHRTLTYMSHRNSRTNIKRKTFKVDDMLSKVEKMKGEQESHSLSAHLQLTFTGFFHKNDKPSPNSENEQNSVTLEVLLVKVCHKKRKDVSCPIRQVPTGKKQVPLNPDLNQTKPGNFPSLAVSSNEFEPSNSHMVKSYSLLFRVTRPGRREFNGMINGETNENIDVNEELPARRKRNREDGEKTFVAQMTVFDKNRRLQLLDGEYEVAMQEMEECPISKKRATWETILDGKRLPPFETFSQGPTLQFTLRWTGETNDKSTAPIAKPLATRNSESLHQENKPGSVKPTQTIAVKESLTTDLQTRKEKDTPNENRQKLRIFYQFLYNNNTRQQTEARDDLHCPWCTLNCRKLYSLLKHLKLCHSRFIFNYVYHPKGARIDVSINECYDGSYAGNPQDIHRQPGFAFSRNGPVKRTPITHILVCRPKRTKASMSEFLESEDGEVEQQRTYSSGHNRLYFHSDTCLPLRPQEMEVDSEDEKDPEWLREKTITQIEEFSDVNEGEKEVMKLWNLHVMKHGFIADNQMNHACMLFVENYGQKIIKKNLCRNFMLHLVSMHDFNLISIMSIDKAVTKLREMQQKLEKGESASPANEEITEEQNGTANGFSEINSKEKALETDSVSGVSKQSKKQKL
UniProt O75530, whole entry partner: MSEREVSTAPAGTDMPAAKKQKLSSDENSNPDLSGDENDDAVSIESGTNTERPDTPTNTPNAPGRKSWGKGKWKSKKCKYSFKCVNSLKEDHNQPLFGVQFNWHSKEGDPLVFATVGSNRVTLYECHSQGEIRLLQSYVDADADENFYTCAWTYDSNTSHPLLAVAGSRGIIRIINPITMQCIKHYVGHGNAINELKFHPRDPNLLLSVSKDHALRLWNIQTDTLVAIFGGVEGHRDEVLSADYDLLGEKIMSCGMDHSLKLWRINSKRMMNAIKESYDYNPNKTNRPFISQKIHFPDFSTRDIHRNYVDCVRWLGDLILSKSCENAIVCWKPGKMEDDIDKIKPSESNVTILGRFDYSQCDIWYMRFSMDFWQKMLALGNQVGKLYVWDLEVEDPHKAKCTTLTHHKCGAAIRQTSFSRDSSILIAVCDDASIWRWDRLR

Experiments:
Y641N EZH2 = Y641N EZH2 (Homo sapiens, UniProt Q15910, Y641N); test: Y641N EZH2 assay (as the EZH2 assay, with H3K27Me2 oligonucleosomes as substrate); conditions: read-out: Y641N EZH2 IC50; Y641N EZH2 mutant, reconstituted H3K27Me2 oligonucleosomes as substrate; top concentration 80 μM
Protocol: (§1) Assays were carried out by mixing rPRC2 together with biotinylated oligonucleosome substrates in the presence of the radio-labeled enzyme co-factor, S-adenosyl-L-methionine (^3H SAM) (Perkin Elmer) and monitoring the enzymatically mediated transfer of tritiated methyl groups from ^3H SAM to histone lysine residues. The amount of resulting tritiated methylhistone product was measured by first capturing the biotinylated oligonucleosomes in streptavidin (SAV) coated FlashPlates (Perkin Elmer), followed by a wash step to remove un-reacted ^3H SAM, and then counting on a TopCount NXT 384 well plate scintillation counter (Perkin Elmer). The final assay conditions for EZH2 were as follows: 50 mM Tris Buffer pH 8.5, 1 mM DTT, 69 μM Brij-35 detergent, 5.0 mM MgCl2, 0.1 mg/mL BSA, 0.2 μM ^3H SAM, 0.2 μM biotinylated oligonucleosomes, 3.6 μM H3K27me3 peptide and 2 nM EZH2.
(§2) Compound IC50 measurements were obtained as follows: Compounds were first dissolved in 100% DMSO as 10 mM stock solutions. Ten point dose response curves were generated by dispensing varying amounts of the 10 mM compound solution in 10 wells of the 384 well plate (Echo; Labcyte), pure DMSO was then used to backfill the wells to insure all wells have the same amount of DMSO. […]

EZH2 = EZH2 (Homo sapiens, UniProt Q15910); test: EZH2 assay (rPRC2, 3H SAM methyl transfer to biotinylated oligonucleosomes); conditions: read-out: EZH2 IC50; rPRC2, 2 nM EZH2, biotinylated oligonucleosomes, 0.2 μM 3H SAM; top concentration 80 μM
Protocol: as §1, §2

| SMILES | IC50 (Y641N EZH2) [µM] | IC50 (EZH2) [µM] |
| --- | --- | --- |
| CCCC(C)c1ccc(C(=O)NCc2c(C)cc(C)[nH]c2=O)cc1 (stereo not shown) [Compound I-10, N-((2-hydroxy-4,6-dimethylpyridin-3-yl)methyl)-4-(pentan-2-yl)benzamide] | < 1 | < 1 |
| CCC(C)n1ccc(C(=O)NCc2c(C)cc(C)[nH]c2=O)cc1=O (stereo not shown) | > 80 | > 80 |
